This note sets out measurements from article doi:10.1101/2025.07.31.667977.

Protein sequences, listed by entry. Tags and fused reporters are not part of them. Lines headed by an entry give the natural chain unless they say otherwise; changes in a name come on top. Residues count along the entry.
UniProt O43567, 35-381: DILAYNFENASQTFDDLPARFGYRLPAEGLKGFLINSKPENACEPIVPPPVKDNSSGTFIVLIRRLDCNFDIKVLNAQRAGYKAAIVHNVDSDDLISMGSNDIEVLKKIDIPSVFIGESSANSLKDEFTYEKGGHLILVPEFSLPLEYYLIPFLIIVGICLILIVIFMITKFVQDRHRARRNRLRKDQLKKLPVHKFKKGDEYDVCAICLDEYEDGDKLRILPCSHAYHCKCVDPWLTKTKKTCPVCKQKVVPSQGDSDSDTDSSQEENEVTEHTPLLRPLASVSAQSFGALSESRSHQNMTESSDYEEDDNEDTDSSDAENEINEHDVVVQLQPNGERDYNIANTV
UniProt Q9NVJ2, whole entry: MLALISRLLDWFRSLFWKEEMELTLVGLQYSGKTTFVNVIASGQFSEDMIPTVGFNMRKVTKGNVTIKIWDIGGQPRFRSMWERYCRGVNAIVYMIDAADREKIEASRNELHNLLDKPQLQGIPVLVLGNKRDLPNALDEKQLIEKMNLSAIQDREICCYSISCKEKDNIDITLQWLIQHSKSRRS

What all share (assay): co-IP
For test [1], the target named is RING finger protein 13 (RNF13), wild type, HA-tagged (human) (UniProt O43567).
In test [2] the target is Arl8B Q75L (constitutively active, GTP-locked), FLAG-tagged (human) (UniProt Q9NVJ2).
The target of test [3] is Arl8B T34N (constitutively inactive, GDP-locked), FLAG-tagged (human) (UniProt Q9NVJ2).
The target in test [4] is ADP-ribosylation factor-like protein 8B (Arl8B), wild type, FLAG-tagged (human) (UniProt Q9NVJ2).

These are yes or no findings as the source states them, for the method shown. In cells and extracts the contact can be indirect. Some entries that bind do so weakly or less than the wild type.

Regarding “ADP-ribosylation factor-like protein 8B (Arl8B), wild type, FLAG-tagged (from UniProt Q9NVJ2-1 1-186)”, in test [1], the binding result is “binds”.

As for “Arl8B E22D, FLAG-tagged (from UniProt Q9NVJ2-1 1-186)”, in test [1], the binding result is “no binding”.

With “Arl8B F55A, FLAG-tagged (from UniProt Q9NVJ2-1 1-186)”, the binding result in test [1] is on record as “no binding”.

Consider “Arl8B, V5-tagged (from UniProt Q9NVJ2 1-186)”, for which, in test [1], the binding result was “binds”.

In the case of “RING finger protein 13 (RNF13), wild type, HA-tagged (from UniProt O43567-1 35-381)”, the binding entry in test [2], in test [3] and in test [4] was “binds” throughout.

Take “endogenous Arl8B (from UniProt Q9NVJ2 1-186)”: the binding result in test [1] was “binds”.
